This data set can be described thus: Tack free time, adhesion test using a glass rod. On the procedure:
The time after which the polyurea system was no longer tacky (tack free time) was measured by adhesion tests using a glass rod. To that end, the glass rod was brought into contact with the layer of the polyurea system. When the rod no longer adhered, the system was considered to be tack-free. In addition, the adhesive force was determined by coating two pieces of muscle tissue (1=4 cm, h=0.3 cm, b=1 cm) with the polyurea system 1 cm from the ends and adhesively bonding them so that they overlapped. The adhesive force of the polyurea system was tested in each case by pulling.

[1] abbreviates: polyurea system of Prepolymer A with equivalent amount of curing agent.
[2] abbreviates: polyurea system of Prepolymer B with equivalent amount of curing agent.

Structures are written as SMILES.

Regarding `CCOC(=O)CC(NCCCC(CCCNC(CC(=O)OCC)C(=O)OCC)CCCNC(CC(=O)OCC)C(=O)OCC)C(=O)OCC` (centres unmarked) [Compound 3, Tetraethyl 2,2′-(4-(3-(1,4-diethoxy-1,4-dioxobutan-2-ylamino)propyl)heptane-1,7-diyl)bis-(azandiyl)disuccinate], the Tack free time was 2 min under setting [1] and 2 min under setting [2].
As for `CCOC(=O)CC(NCCCC(C)CNC(CC(=O)OCC)C(=O)OCC)C(=O)OCC` (centres unmarked) [Compound 4, tetraethyl 2,2′-[(2-methylpentane-1,5-diyl)diimino]dibutanoate], the Tack free time under setting [2] is reported as more than 30 min. Also, the “time after which still not tack-free” value (reacted with prepolymer B, text of Comparison Example 1) is more than 10 min.
Consider `CCOC(=O)CC(NCCCCC(CCCNC(CC(=O)OCC)C(=O)OCC)CNC(CC(=O)OCC)C(=O)OCC)C(=O)OCC` (centres unmarked) [Compound 5, Diethyl 2-[(8-[(1,4-diethoxy-1,4-dioxobutan-2-yl)amino]-4-{[(1,4-diethoxy-1,4-dioxobutan-2-yl)-amino]methyl}octyl)amino]butanedioate], for which the Tack free time under setting [1] turned out to be 5 min.

For the origin of these results see patent US20130317134A1, “TISSUE ADHESIVE BASED ON TRIFUNCTIONAL ASPARTATES” (Bayer Intellectual Property GmbH Creative Campus Monheim, priority 2011, published 2013).
